According to JP2003262640A:
These are yes or no findings as the source states them, for the method shown. Some entries that bind do so weakly or less than the wild type.

T1: ラットAILIM (rat AILIM) (rat) (UniProt Q9R1T7)
T1 sequence (looked up): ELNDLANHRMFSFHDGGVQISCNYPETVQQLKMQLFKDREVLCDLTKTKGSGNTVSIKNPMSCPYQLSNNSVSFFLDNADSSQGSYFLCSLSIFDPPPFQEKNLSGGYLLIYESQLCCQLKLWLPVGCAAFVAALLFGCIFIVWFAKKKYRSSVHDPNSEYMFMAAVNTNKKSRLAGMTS


Biological target: T1, ラットAILIM (rat AILIM) (rat)
Experiment: cell ELISA on rat AILIM CHO cells

| binding | Binder |
| --- | --- |
| binds | AII289 (JMab-138) (antibody, human IgG2, kappa, V domains shown) VH: EVQLVESGGGLVQPGGSLRLSCAASGFTFSSYDMHWVRQATGKGLEWVSAIGTAGDTYYPGSVKGRFTISRENAKNSLYLQMNSLRAGDTAVYYCVRDNRKVTHEHYYYYGMDVWGQGTTVTVSS VL: EIVLTQSPGTLSLSPGERATLSCRASQNIRSSYLAWYQQKPGQAPGLLIYGASSRATGIPDRFSGSGSGTDFTLTISRLEPEDFAVYYCQQFGSSPMCSFGQGTKLEIKR |
| binds | AII394 (JMab-139) (antibody, human IgG2, kappa, V domains shown) VH: EVQLVESGGGLVQPGGSLRLSCAASGFTFSSYDMHWVRQATGKGLEWVSAIGTAGDTYYPGSVKGRFTISRENAKNSLYLQMNSLRAGDTAVYYCVRDKRTVTHEHYYYYGMDVWGQGTTVTVSS VL: EIVLTQSPGTLSLSPGERATLSCRASQSISSSSLAWYQQKPGQAPGLLIFGASSRATGIPDRFSGSGSGTDFTLTISRLEPEDFAVYYCQQFGSSPMCSFGQGTKLEIKR |
